# Some of the results follow.
# B1: Adiponectin (Rattus norvegicus), Q8K3R4 (protein)
# chain: MLLLQALLFLLILPSHEGITATEGPGALVPPPKETCAGWMAGIPGYPGHNGIPGRDGRDGTPGEKGEKGDAGVLGPKGDPGDAGMTGAEGPRGFPGTPGRKGEPGEAAYMYHSAFSVGLETRVTVPNVPIRFTKIFYNQQNHYDGSTGKFHCNIPGLYYFSYHITVYMKDVKVSLFKKDKAVLFTYDQYQEKNVDQASGSMLLHLEVGDQVWLQVYGEGDNNGLYADNVNDSTFTGFLLYHDTN
# Assays:
# Assay in all cases: glycan array binding signal (z-score within array); higher = stronger binding
# Conditions in all cases: glycan notation: IUPAC condensed, linker removed
# Gal(b1-3)Gal(b1-4)GlcNAc = biological target: Gal(b1-3)Gal(b1-4)GlcNAc
# In short: (§1)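 The binding signal is a Z-score computed within each array and averaged over linkers. Arrays of the same protein sequence at different concentrations or buffers were also averaged together. Data originate from 3228 arrays in the Consortium for Functional Glycomics database, kept only where the protein sequence was available.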
# [1] = biological target: Gal(b1-3)Gal(b1-4)GlcNAc(b1-2)Man(a1-3)[Gal(b1-3)Gal(b1-4)GlcNAc(b1-2)Man(a1-6)]Man(b1-4)GlcNAc(b1-4)GlcNAc
# In short: as §1
# Gal(b1-3)GalNAc = biological target: Gal(b1-3)GalNAc
# In short: as §1
# [2] = biological target: Gal(b1-3)GalNAc(a1-3)[Fuc(a1-2)]Gal(b1-4)Glc
# In short: as §1
# [3] = biological target: Gal(b1-3)GalNAc(a1-3)[Fuc(a1-2)]Gal(b1-4)GlcNAc
# In short: as §1
# [4] = biological target: Gal(b1-3)GalNAc(b1-3)Gal(a1-4)Gal(b1-4)Glc
# In short: as §1
# [5] = biological target: Gal(b1-3)GalNAc(b1-4)Gal(b1-4)Glc
# In short: as §1
# [6] = biological target: Gal(b1-3)GalNAc(b1-4)[Neu5Ac(a2-3)]Gal(b1-4)Glc
# In short: as §1
# Gal(b1-3)GlcNAc = biological target: Gal(b1-3)GlcNAc
# In short: as §1
# [7] = biological target: Gal(b1-3)GlcNAc(b1-2)Man(a1-3)[Gal(b1-3)GlcNAc(b1-2)Man(a1-6)]Man(b1-4)GlcNAc(b1-4)GlcNAc
# In short: as §1
# [8] = biological target: Gal(b1-3)GlcNAc(b1-2)Man(a1-3)[Gal(b1-3)GlcNAc(b1-2)Man(a1-6)]Man(b1-4)GlcNAc(b1-4)[Fuc(a1-6)]GlcNAc
# In short: as §1
# [9] = biological target: Gal(b1-3)GlcNAc(b1-3)Gal(b1-3)GlcNAc
# In short: as §1
# [10] = biological target: Gal(b1-3)GlcNAc(b1-3)Gal(b1-4)Glc
# In short: as §1
# [11] = biological target: Gal(b1-3)GlcNAc(b1-3)Gal(b1-4)GlcNAc
# In short: as §1
# [12] = biological target: Gal(b1-3)[Fuc(a1-4)]GlcNAc
# In short: as §1
# [13] = biological target: Gal(b1-3)[Fuc(a1-4)]GlcNAc(b1-2)Man(a1-3)[Gal(b1-3)[Fuc(a1-4)]GlcNAc(b1-2)Man(a1-6)]Man(b1-4)GlcNAc(b1-4)GlcNAc
# In short: as §1
# [14] = biological target: Gal(b1-3)[Fuc(a1-4)]GlcNAc(b1-2)Man(a1-3)[Gal(b1-3)[Fuc(a1-4)]GlcNAc(b1-2)Man(a1-6)]Man(b1-4)GlcNAc(b1-4)[Fuc(a1-6)]GlcNAc
# In short: as §1
# [15] = biological target: Gal(b1-3)[Fuc(a1-4)]GlcNAc(b1-3)Gal(b1-3)[Fuc(a1-4)]GlcNAc
# In short: as §1
# [16] = biological target: Gal(b1-3)[Fuc(a1-4)]GlcNAc(b1-3)Gal(b1-4)GlcNAc
# In short: as §1
# [17] = biological target: Gal(b1-3)[Fuc(a1-4)]GlcNAc(b1-3)Gal(b1-4)[Fuc(a1-3)]GlcNAc
# In short: as §1
# [18] = biological target: Gal(b1-3)[GlcNAc(b1-6)]GalNAc
# In short: as §1
# [19] = biological target: Gal(b1-3)[Neu5Ac(a2-6)]GalNAc
# In short: as §1
# [20] = biological target: Gal(b1-3)[Neu5Ac(a2-6)]GlcNAc(b1-6)Gal(b1-4)Glc
# In short: as §1
# [21] = biological target: Gal(b1-3)[Neu5Ac(b2-6)]GalNAc
# In short: as §1
# [22] = biological target: Gal(b1-4)GalNAc(a1-3)[Fuc(a1-2)]Gal(b1-4)GlcNAc
# In short: as §1
# [23] = biological target: Gal(b1-4)GalNAc(b1-3)[Fuc(a1-2)]Gal(b1-4)GlcNAc
# In short: as §1
# Gal(b1-4)Glc = biological target: Gal(b1-4)Glc
# In short: as §1
# Gal(b1-4)Glc6S = biological target: Gal(b1-4)Glc6S
# In short: as §1
# Gal(b1-4)GlcNAc = biological target: Gal(b1-4)GlcNAc
# In short: as §1
# [24] = biological target: Gal(b1-4)GlcNAc(a1-6)Gal(b1-4)GlcNAc
# In short: as §1
# [25] = biological target: Gal(b1-4)GlcNAc(b1-2)Man(a1-3)Man(b1-4)GlcNAc(b1-4)GlcNAc
# In short: as §1
# [26] = biological target: Gal(b1-4)GlcNAc(b1-2)Man(a1-3)[Gal(b1-4)GlcNAc(b1-2)Man(a1-6)]Man(b1-4)GlcNAc(b1-4)GlcNAc
# In short: as §1
# [27] = biological target: Gal(b1-4)GlcNAc(b1-2)Man(a1-3)[Gal(b1-4)GlcNAc(b1-2)Man(a1-6)]Man(b1-4)GlcNAc(b1-4)[Fuc(a1-6)]GlcNAc
# In short: as §1
# [28] = biological target: Gal(b1-4)GlcNAc(b1-2)Man(a1-3)[Man(a1-6)]Man(b1-4)GlcNAc(b1-4)GlcNAc
# In short: as §1
# [29] = biological target: Gal(b1-4)GlcNAc(b1-2)Man(a1-6)Man(b1-4)GlcNAc(b1-4)GlcNAc
# In short: as §1
# [30] = biological target: Gal(b1-4)GlcNAc(b1-2)Man(a1-6)[Man(a1-3)]Man(b1-4)GlcNAc(b1-4)GlcNAc
# In short: as §1
# [31] = biological target: Gal(b1-4)GlcNAc(b1-2)[Gal(b1-4)GlcNAc(b1-4)]Man(a1-3)[Gal(b1-4)GlcNAc(b1-2)Man(a1-6)]Man(b1-4)GlcNAc(b1-4)GlcNAc
# In short: as §1
binder,measurement,setting,value
B1,glycan array binding signal (z-score),Gal(b1-3)Gal(b1-4)GlcNAc,0.528
same,glycan array binding signal (z-score),[1],-0.799
same,glycan array binding signal (z-score),Gal(b1-3)GalNAc,-0.573
same,glycan array binding signal (z-score),[2],2.11
same,glycan array binding signal (z-score),[3],-0.406
same,glycan array binding signal (z-score),[4],-0.835
same,glycan array binding signal (z-score),[5],-0.713
same,glycan array binding signal (z-score),[6],-0.307
same,glycan array binding signal (z-score),Gal(b1-3)GlcNAc,-0.279
same,glycan array binding signal (z-score),[7],-0.669
same,glycan array binding signal (z-score),[8],-1.31
same,glycan array binding signal (z-score),[9],-0.596
same,glycan array binding signal (z-score),[10],0.919
same,glycan array binding signal (z-score),[11],0.244
same,glycan array binding signal (z-score),[12],0.096
same,glycan array binding signal (z-score),[13],-1.37
same,glycan array binding signal (z-score),[14],-1.12
same,glycan array binding signal (z-score),[15],-0.659
same,glycan array binding signal (z-score),[16],-0.476
same,glycan array binding signal (z-score),[17],-0.73
same,glycan array binding signal (z-score),[18],-0.199
same,glycan array binding signal (z-score),[19],1.84
same,glycan array binding signal (z-score),[20],0.072
same,glycan array binding signal (z-score),[21],-0.559
same,glycan array binding signal (z-score),[22],-0.398
same,glycan array binding signal (z-score),[23],0.506
same,glycan array binding signal (z-score),Gal(b1-4)Glc,0.419
same,glycan array binding signal (z-score),Gal(b1-4)Glc6S,-0.949
same,glycan array binding signal (z-score),Gal(b1-4)GlcNAc,-0.468
same,glycan array binding signal (z-score),[24],-0.335
same,glycan array binding signal (z-score),[25],-0.863
same,glycan array binding signal (z-score),[26],1.59
same,glycan array binding signal (z-score),[27],-0.816
same,glycan array binding signal (z-score),[28],1.31
same,glycan array binding signal (z-score),[29],0.715
same,glycan array binding signal (z-score),[30],-1.04
same,glycan array binding signal (z-score),[31],-0.006

# Rewritten with bars between the fields: part of the list above
binder | measurement | setting | value
B1 | glycan array binding signal (z-score) | Gal(b1-3)GalNAc | -0.573
same | glycan array binding signal (z-score) | [5] | -0.713
same | glycan array binding signal (z-score) | [9] | -0.596
same | glycan array binding signal (z-score) | [13] | -1.37
same | glycan array binding signal (z-score) | [21] | -0.559
same | glycan array binding signal (z-score) | [22] | -0.398
same | glycan array binding signal (z-score) | [23] | 0.506
same | glycan array binding signal (z-score) | [26] | 1.59
same | glycan array binding signal (z-score) | [28] | 1.31
same | glycan array binding signal (z-score) | [29] | 0.715

# Source: the supplement of paper PMC8728848
